From publication PMC6874091 come the findings set out here.

Protein sequences, listed by entry. Tags and fused reporters are not part of them.
UniProt Q14258: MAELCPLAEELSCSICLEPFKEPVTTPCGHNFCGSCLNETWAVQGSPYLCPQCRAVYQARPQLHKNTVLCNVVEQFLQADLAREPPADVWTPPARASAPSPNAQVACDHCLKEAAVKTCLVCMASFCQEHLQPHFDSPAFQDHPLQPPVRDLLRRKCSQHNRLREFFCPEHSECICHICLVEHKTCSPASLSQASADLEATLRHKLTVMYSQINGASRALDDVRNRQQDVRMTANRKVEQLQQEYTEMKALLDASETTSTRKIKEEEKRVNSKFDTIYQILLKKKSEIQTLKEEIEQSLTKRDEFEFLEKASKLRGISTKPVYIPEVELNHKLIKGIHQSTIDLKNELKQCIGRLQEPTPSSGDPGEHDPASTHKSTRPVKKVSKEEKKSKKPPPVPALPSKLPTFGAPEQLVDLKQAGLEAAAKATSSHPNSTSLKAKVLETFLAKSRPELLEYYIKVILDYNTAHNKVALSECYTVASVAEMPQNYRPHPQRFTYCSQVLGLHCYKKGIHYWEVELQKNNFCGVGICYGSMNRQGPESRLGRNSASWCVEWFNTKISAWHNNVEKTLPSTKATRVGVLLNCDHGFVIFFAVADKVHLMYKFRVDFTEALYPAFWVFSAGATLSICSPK

The target in assay [1] is 6xHis-BPLF1 (amino acid 1-274), bacterially expressed (Epstein-Barr virus (EBV)) (UniProt P03186). Briefly: SEC; gel filtration of purified 6xHis-BPLF1 on Superdex 75 10/300 GL in 20 mM Tris-HCl pH 7.5, 150 mM NaCl; both purified. Background: SEC sorts molecules by how far they enter the pores of the column.
Assay [2] addresses 3xFLAG-BPLF1-D86-90R (helix-2 mutant) (Epstein-Barr virus (EBV)) (UniProt P03186). Briefly: co-IP; FLAG-tagged BPLF1 constructs immunoprecipitated with anti-FLAG agarose from lysates of transfected HeLa cells (NP-40 lysis buffer, 4 h, eluted with FLAG peptide); blots probed for endogenous TRIM25, 14-3-3 and 14-3-3 isoforms; with or without phosphatase inhibitors.
The target in assay [3] is 3xFLAG-BPLF1 (amino acid residues 1-235), catalytically active N-terminal deconjugase domain of the Epstein-Barr virus large tegument protein BPLF1 (Epstein-Barr virus (EBV)) (UniProt P03186). The assay is described as above.

These are yes or no findings as the source states them, for the method shown. For part of these data: In cells and extracts the contact can be indirect. Some binding calls cover weakened binding; strength is not graded here.

For the substance “6xHis-BPLF1 (amino acid 1-274), bacterially expressed (from UniProt P03186 1-274) (domain or fragment)”, the binding entry in assay [1] is reported as “no binding”.
For the substance “TRIM25 (endogenous) (from UniProt Q14258 1-630)”, the binding entry in assay [2] and in assay [3] was “binds” each time.
